Holding throughout (settings): RNA concentration 10 µM; fragment concentration 200 µM; 293 K
Experiment [1] deals with SARS-CoV-2 3'-UTR RNA. The experiment in a line: 1H chemical shift perturbation upon RNA addition; higher = stronger binding.
The subject of another experiment is SARS-CoV-2 3_SL3base RNA. The experiment is described as above.
For the next experiment, the system named is SARS-CoV-2 5'-UTR RNA. The experiment is described as above.
Another experiment deals with SARS-CoV-2 5_SL5 RNA. The description is as above.
The subject of another experiment is SARS-CoV-2 5_SL8 RNA. Described as above.
In experiment [2] the test system is SARS-CoV-2 3'-UTR RNA. The experiment in a line: waterLOGSY factor (bound vs free ligand) (ratio); higher = stronger binding.
In the next experiment the test system is SARS-CoV-2 5_SL5stem RNA. The experiment in a line: 1H chemical shift perturbation upon RNA addition; higher = stronger binding.
A further experiment has as its system SARS-CoV-2 3_s2m RNA. The experiment is described as above.
The next experiment relates to SARS-CoV-2 5_SL7 RNA. The description is as above.
In the next experiment the test system is SARS-CoV-2 3_SL1+2 RNA. The description is as above.
The test system of a further experiment is SARS-CoV-2 5_SL4 RNA. Described as above.
For experiment [3], the system named is SARS-CoV-2 frameshift pseudoknot (PK) RNA. The experiment is described as above.
In the next experiment the test system is SARS-CoV-2 3_SL2 RNA. The experiment is described as above.
In a further experiment the test system is SARS-CoV-2 5_SL5b+c RNA. The description is as above.
Another experiment deals with SARS-CoV-2 5_SL6 RNA. The experiment is described as above.

Some of the results follow. Most values come without repeats; read them as rough.

23 molecules from the supplement of paper PMC8426693 can be followed below.

As to `c1cc(-c2ccc3c(c2)OCO3)n[nH]1`, the “1H chemical shift perturbation upon RNA addition” value in the experiment on SARS-CoV-2 3'-UTR RNA [1] was determined as 6 Hz; in the experiment with SARS-CoV-2 3_SL3base RNA, 7 Hz; in the experiment with SARS-CoV-2 5'-UTR RNA, 6 Hz; with SARS-CoV-2 5_SL5 RNA, 6 Hz; with SARS-CoV-2 5_SL8 RNA it was 6.37 Hz. In addition, in the experiment with SARS-CoV-2 3'-UTR RNA [2], the waterLOGSY factor was 1.89.
As to `O=C(Nc1ccon1)c1cccc(Cl)c1`, the “1H chemical shift perturbation upon RNA addition” value amounted to 8 Hz in the experiment with SARS-CoV-2 3'-UTR RNA [1]; 9 Hz with SARS-CoV-2 3_SL3base RNA; 3 Hz in the experiment on SARS-CoV-2 5'-UTR RNA; 7 Hz in the experiment with SARS-CoV-2 5_SL5 RNA; 5 Hz with SARS-CoV-2 5_SL5stem RNA. In the experiment on SARS-CoV-2 3'-UTR RNA [2], the waterLOGSY factor worked out at 1.75.
In the case of `COc1ccc(Nc2ncnc3[nH]cnc23)cc1`, the figures for the “1H chemical shift perturbation upon RNA addition” value in the experiment with SARS-CoV-2 3'-UTR RNA [1], in the experiment with SARS-CoV-2 3_SL3base RNA and with SARS-CoV-2 5_SL5 RNA were 9 Hz, 8 Hz and 7 Hz, respectively. The waterLOGSY factor in the experiment with SARS-CoV-2 3'-UTR RNA [2] came to 1.89.
For the molecule `CNC(=O)c1nc2ccccc2c(=O)[nH]1`, the “1H chemical shift perturbation upon RNA addition” value with SARS-CoV-2 3'-UTR RNA [1] worked out at 8 Hz; with SARS-CoV-2 5'-UTR RNA, 5 Hz. Further, the waterLOGSY factor in the experiment on SARS-CoV-2 3'-UTR RNA [2] came to 0.51.
`Cl.NCc1cc(-c2ccccc2)no1`: the “1H chemical shift perturbation upon RNA addition” value in the experiment on SARS-CoV-2 3'-UTR RNA [1] came to 10 Hz; in the experiment with SARS-CoV-2 3_s2m RNA, 9 Hz; in the experiment with SARS-CoV-2 5'-UTR RNA it was 33 Hz; in the experiment with SARS-CoV-2 5_SL7 RNA, 13 Hz. The waterLOGSY factor in the experiment on SARS-CoV-2 3'-UTR RNA [2] was determined as 1.43.
For the molecule `O=C(Nc1ccc2ncccc2c1)c1ccccc1`, the “1H chemical shift perturbation upon RNA addition” value came out at 7 Hz in the experiment on SARS-CoV-2 3'-UTR RNA [1], 8 Hz in the experiment on SARS-CoV-2 3_SL3base RNA, 7 Hz in the experiment with SARS-CoV-2 5'-UTR RNA and 4 Hz in the experiment with SARS-CoV-2 5_SL5 RNA. The waterLOGSY factor in the experiment with SARS-CoV-2 3'-UTR RNA [2] was 2.16.
With `CC(=O)Nc1ccc(-c2csc(N)n2)cc1`, the “1H chemical shift perturbation upon RNA addition” value in the experiment on SARS-CoV-2 3'-UTR RNA [1] was found to be 12 Hz; in the experiment with SARS-CoV-2 5'-UTR RNA, 7 Hz; in the experiment with SARS-CoV-2 5_SL5 RNA, 10 Hz. Further, the waterLOGSY factor with SARS-CoV-2 3'-UTR RNA [2] stood at 2.87.
For `NC(=O)c1ccnc(NC2CC=CC2)c1`, the “1H chemical shift perturbation upon RNA addition” value came out at 17 Hz with SARS-CoV-2 3'-UTR RNA [1], 9 Hz with SARS-CoV-2 3_SL1+2 RNA and 6 Hz in the experiment on SARS-CoV-2 5_SL4 RNA. The waterLOGSY factor with SARS-CoV-2 3'-UTR RNA [2] was 1.26.
`Cc1ccccc1OCC(=O)Nc1ccccc1`: the “1H chemical shift perturbation upon RNA addition” value in the experiment on SARS-CoV-2 3'-UTR RNA [1] turned out to be 4 Hz; with SARS-CoV-2 5_SL5 RNA it was 3 Hz; in experiment [3] it was 1 Hz. The waterLOGSY factor with SARS-CoV-2 3'-UTR RNA [2] was found to be 1.7.
As to `Cc1cc(C(=O)Nc2ccc3[nH]ccc3c2)no1`, the results for the “1H chemical shift perturbation upon RNA addition” value with SARS-CoV-2 3'-UTR RNA [1] and with SARS-CoV-2 3_SL3base RNA were 6 Hz and 7 Hz, respectively. Moreover, the waterLOGSY factor with SARS-CoV-2 3'-UTR RNA [2] came to 1.6.
Take `Cc1nccc(N2CCC(N)CC2)n1`: the “1H chemical shift perturbation upon RNA addition” value in the experiment on SARS-CoV-2 3'-UTR RNA [1] was 10 Hz; in the experiment on SARS-CoV-2 3_SL1+2 RNA, 14 Hz; in the experiment on SARS-CoV-2 3_SL2 RNA, 10 Hz; in the experiment on SARS-CoV-2 3_SL3base RNA, 21 Hz; in the experiment on SARS-CoV-2 3_s2m RNA, 10 Hz; with SARS-CoV-2 5'-UTR RNA it was 23 Hz. In addition, the results for the “1H chemical shift perturbation upon RNA addition” value (with SARS-CoV-2 5_SL5b+c RNA; in experiment [3]) were 12 Hz and 5 Hz, respectively. Moreover, the waterLOGSY factor in the experiment on SARS-CoV-2 3'-UTR RNA [2] was 1.64.
As to `N#Cc1ccc(NC(=O)c2cccs2)cc1`, the “1H chemical shift perturbation upon RNA addition” value with SARS-CoV-2 3'-UTR RNA [1] was determined as 13 Hz; in the experiment on SARS-CoV-2 3_SL3base RNA it was 14 Hz; in the experiment with SARS-CoV-2 5_SL5 RNA, 9 Hz. For the same molecule, the waterLOGSY factor in the experiment on SARS-CoV-2 3'-UTR RNA [2] was determined as 2.54.
Turning to `c1ccc(CCNc2nc3ccccc3[nH]2)cc1`, the figures for the “1H chemical shift perturbation upon RNA addition” value with SARS-CoV-2 3'-UTR RNA [1] and in the experiment with SARS-CoV-2 5'-UTR RNA were 7 Hz and 17 Hz, respectively. For the same molecule, the waterLOGSY factor with SARS-CoV-2 3'-UTR RNA [2] is 2.21.
In the case of `Cc1ccc(-c2noc(CNC(C)C)n2)cc1`, the “1H chemical shift perturbation upon RNA addition” value amounted to 8 Hz in the experiment with SARS-CoV-2 3'-UTR RNA [1], 15 Hz in the experiment on SARS-CoV-2 3_SL3base RNA, 10 Hz in the experiment with SARS-CoV-2 5_SL5 RNA and 12 Hz in the experiment on SARS-CoV-2 5_SL7 RNA. Also, in the experiment with SARS-CoV-2 3'-UTR RNA [2], the waterLOGSY factor was determined as 1.64.
`CNCC(=O)Nc1cc(C)ccn1`: the “1H chemical shift perturbation upon RNA addition” value with SARS-CoV-2 3'-UTR RNA [1] was found to be 7 Hz; in the experiment on SARS-CoV-2 3_SL3base RNA, 11 Hz; in the experiment with SARS-CoV-2 5'-UTR RNA, 18 Hz. Moreover, in the experiment on SARS-CoV-2 3'-UTR RNA [2], the waterLOGSY factor worked out at 1.8.
On to `O=C(OCc1ccc(Cl)cc1)c1cccnc1`, for which the “1H chemical shift perturbation upon RNA addition” value worked out at 7 Hz with SARS-CoV-2 3'-UTR RNA [1] and 3 Hz with SARS-CoV-2 5'-UTR RNA. The waterLOGSY factor with SARS-CoV-2 3'-UTR RNA [2] came out at 1.19.
In the case of `CC(C)c1ccc(C(=O)Nc2nncs2)cc1`, the “1H chemical shift perturbation upon RNA addition” value with SARS-CoV-2 3'-UTR RNA [1] came to 8 Hz; in the experiment with SARS-CoV-2 5_SL5 RNA, 12 Hz. The waterLOGSY factor with SARS-CoV-2 3'-UTR RNA [2] amounted to 1.72.
In the case of `O=C(Nc1ccc(O)cc1)c1ccc(Cl)cc1`, the “1H chemical shift perturbation upon RNA addition” value in the experiment on SARS-CoV-2 3'-UTR RNA [1] is 2 Hz; with SARS-CoV-2 3_SL3base RNA, 4 Hz; in the experiment with SARS-CoV-2 5'-UTR RNA, 3 Hz. Moreover, in the experiment with SARS-CoV-2 3'-UTR RNA [2], the waterLOGSY factor was 3.2.
For the molecule `CNC(=O)c1ccccc1NC(=O)c1ccco1`, the “1H chemical shift perturbation upon RNA addition” value amounted to 7 Hz in the experiment with SARS-CoV-2 3'-UTR RNA [1]; 10 Hz in the experiment on SARS-CoV-2 3_SL3base RNA; 7 Hz in the experiment with SARS-CoV-2 5'-UTR RNA; 7 Hz with SARS-CoV-2 5_SL5 RNA; 9 Hz in the experiment on SARS-CoV-2 5_SL6 RNA; 7.56 Hz in the experiment on SARS-CoV-2 5_SL8 RNA. In addition, the waterLOGSY factor in the experiment on SARS-CoV-2 3'-UTR RNA [2] is 2.9.
`OCc1ccc(-n2cnc3ccccc32)cc1`: the “1H chemical shift perturbation upon RNA addition” value in the experiment on SARS-CoV-2 3'-UTR RNA [1] was 1 Hz; in the experiment with SARS-CoV-2 5'-UTR RNA it was 2 Hz. In addition, the waterLOGSY factor in the experiment on SARS-CoV-2 3'-UTR RNA [2] came out at 1.35.
In the case of `CCc1nc(-c2ccc(Cl)cc2)no1`, the “1H chemical shift perturbation upon RNA addition” value in the experiment on SARS-CoV-2 3'-UTR RNA [1] amounted to 12 Hz. In addition, in the experiment on SARS-CoV-2 3'-UTR RNA [2], the waterLOGSY factor came out at 1.72.
For the molecule `COc1ccc2[nH]cc(CN(C)C)c2c1`, the “1H chemical shift perturbation upon RNA addition” value in the experiment with SARS-CoV-2 5'-UTR RNA was 18 Hz; with SARS-CoV-2 5_SL7 RNA, 7 Hz.
`COc1ccc(NC(=O)CN)cc1`: the “1H chemical shift perturbation upon RNA addition” value with SARS-CoV-2 5'-UTR RNA was found to be 5 Hz.
